Legend:
[1] = LC-ESI MS/MS quantification of drug concentration in intestinal tissue homogenates after oral cassette administration; type: in vivo, rat; settings: oral 10 µmol/kg, relative to 20 min
Procedure: Male rats (Han-Wistar, ~ 100 days old, body-weight ~ 300 g) were used in this study. The animals had free access to food and water and were fasted overnight prior drug administration and sacrifice. All experiments were performed in accordance with relevant guidelines and regulations, the animal work was approved by the Local Animal Research Ethics Board of Gothenburg, Sweden. […] The small intestine was collected 20 and 45 min post administration. Four animals were dosed in this study, and non-dosed tissue was prepared from control rats in parallel. The three selected compounds are well characterised drugs and their in-vivo pharmacokinetics have been established in many species, [42], [43]. Therefore, in the present study we focussed on the concept of “vertical” absorption gradients along the crypt-villous axis, which has not been studied earlier. The intestine was removed under anaesthesia using isoflurane (Forene, Abbott, USA), to ensure full viability and oxygenation of the tissue until the moment of excision. […] The samples were analysed by LC-MS/MS and quantified against a calibration standard curve. […] Data was acquired using multiple reaction monitoring (MRM) and mass transitions determined by QuanOptimize (Waters). […] Concentrations were determined against matrix-spiked calibration standards over a range of 6.8nM- 1 µM, for all methods weighted linear regression (1/X^2) was applied.

[2] = MALDI-MSI of drug distribution in rat small intestine after oral cassette administration; type: in vivo
Procedure: Male rats (Han-Wistar, ~ 100 days old, body-weight ~ 300 g) were used in this study. […] All experiments were performed in accordance with relevant guidelines and regulations, the animal work was approved by the Local Animal Research Ethics Board of Gothenburg, Sweden. […] Four animals were dosed in this study, and non-dosed tissue was prepared from control rats in parallel. […] Therefore, in the present study we focussed on the concept of “vertical” absorption gradients along the crypt-villous axis, which has not been studied earlier. The intestine was removed under anaesthesia using isoflurane (Forene, Abbott, USA), to ensure full viability and oxygenation of the tissue until the moment of excision. Animals were sacrificed without regaining consciousness by aortal incision and an overdose of isoflurane. Immediately after excision, intestines were divided into 10 cm long segments and each segment was carefully washed with Krebs-Bicarbonate-Ringer buffer (KBR) from the stomach to the large intestine (additional information in Supplementary Data). The first 5–10 mm of each segment were cut, quickly weighed and collected in homogenization tubes for subsequent extraction and LCMS analysis of total drug concentration in the gut-wall. The next 8–9 cm of each segment were prepared for MALDI-MSI analysis. […] The CMC gels quickly on wet-ice/isopropanol and provides tissue support during the subsequent cryosectioning. All samples were stored at −20 °C until cryosectioning. The embedded samples were attached and positioned with OCT-compound (TissueTek) to the specimen holder of a microtome (Cryo-Star HM 560 M, Microm International, Germany) set to −20 °C. The samples were sectioned at 10 µm thickness. […] A control tissue section from the same intestinal region from non-dosed animal was placed on each slide to enable a direct comparison to be made. All slides were kept at −80 °C until MALDI-MSI analysis. Tissue sections were also stained using haematoxylin and eosin (H&E) following a standard histological protocol for fresh frozen tissues. […]

[3] = ref [4]; cited from earlier work
Caco-2 = test system: Caco-2; design: method as in PMID 1673839, PMID 11259831, PMID 9523990; settings: ref [1], [15] and [48]; cited from earlier work

CC(C)NCC(O)COc1ccc(CC(N)=O)cc1 (stereo not drawn) [Atenolol]
compound remaining in the intestine 45 min post-dosing [1]: about 50%
distribution along the crypt-villus axis (ion images) ([2]; oral 1 µmol/kg, 20 min, 15 µm spatial resolution): more evenly distributed along the whole crypt-villus axis
distance downstream from the stomach of highest relative abundance (MALDI-MSI) ([2]; oral 1 µmol/kg, 20 min post administration): 50–60 cm
distribution along the height of the villi (ion images) ([2]; oral 10 µmol/kg): more even distribution along the height of the villi
overall absorption [3]: around 50%
Caco-2 Papp (Caco-2): 0.20 1E-6.cm/s

Source: PMC5526999, “Mass Spectrometry Imaging proves differential absorption profiles of well-characterised permeability markers along the crypt-villus axis” (Scientific Reports, 2017)
